# Earlier results as cited in patent US20240382483A1, “HETEROCYCLIC EGFR INHIBITORS FOR USE IN THE TREATMENT OF CANCER” (Blueprint Medicines Corporation, priority 2021, published 2024).
# Some entries share one result that the patent states for a list of compounds.
# Tested on: EGFR mutant NSCLC (EGFR M+)
# Conditions: EGFR M+ NSCLC patients treated first line (1L); cited from earlier work
smiles,measurement,value
C=CC(=O)Nc1cc(Nc2nccc(-c3cn(C)c4ccccc34)n2)c(OC)cc1N(C)CCN(C)C [osimertinib],objective response rate (ORR),60-85%
